Experimental data reported in PMC7357790.
Results are given in words; binding and its absence hold for the method and conditions named. For some assays here: Binding seen in cells or lysates may run through a third protein. For some assays here: Where a sequence is shown, tags or fusion partners need not be part of it.

The chains behind the UniProt entries cited, without tags or fusion partners.
UniProt P20081: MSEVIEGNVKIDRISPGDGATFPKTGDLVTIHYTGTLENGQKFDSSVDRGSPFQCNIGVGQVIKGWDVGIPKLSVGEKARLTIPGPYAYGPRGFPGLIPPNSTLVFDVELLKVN

Key:
[1] = target: T1, Rap1 (repressor/activator site binding protein 1), recombinant (S. cerevisiae) (UniProt P11938); assay: pull-down; Ni-pulldown assay in vitro with recombinant Rap1 and Fpr1 proteins; no data shown, no methods given
T1 sequence: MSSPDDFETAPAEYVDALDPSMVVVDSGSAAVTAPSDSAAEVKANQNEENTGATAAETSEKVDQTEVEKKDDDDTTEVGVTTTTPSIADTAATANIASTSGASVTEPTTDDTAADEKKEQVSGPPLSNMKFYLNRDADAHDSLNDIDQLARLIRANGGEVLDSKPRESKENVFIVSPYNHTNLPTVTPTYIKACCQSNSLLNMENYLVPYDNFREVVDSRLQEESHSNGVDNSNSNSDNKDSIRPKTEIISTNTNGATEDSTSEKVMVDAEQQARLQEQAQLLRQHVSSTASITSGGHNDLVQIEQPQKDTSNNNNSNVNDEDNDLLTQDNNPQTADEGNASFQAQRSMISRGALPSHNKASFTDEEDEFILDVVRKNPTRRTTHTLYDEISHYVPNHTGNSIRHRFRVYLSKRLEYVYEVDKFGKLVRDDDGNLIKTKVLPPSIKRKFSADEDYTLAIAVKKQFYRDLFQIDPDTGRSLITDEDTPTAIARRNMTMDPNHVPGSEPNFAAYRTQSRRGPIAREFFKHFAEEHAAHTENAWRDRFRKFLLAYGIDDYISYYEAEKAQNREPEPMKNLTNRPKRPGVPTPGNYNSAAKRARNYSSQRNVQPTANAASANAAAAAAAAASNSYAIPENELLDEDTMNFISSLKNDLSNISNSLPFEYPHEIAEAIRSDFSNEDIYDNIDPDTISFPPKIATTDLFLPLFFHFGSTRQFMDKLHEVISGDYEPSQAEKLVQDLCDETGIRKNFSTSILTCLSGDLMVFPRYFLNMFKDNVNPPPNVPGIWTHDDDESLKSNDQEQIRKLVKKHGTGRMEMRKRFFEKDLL

[2] = target: T2, Rap1, two-hybrid fusion (S. cerevisiae) (UniProt P11938); assay: two-hybrid; two-hybrid assay in vivo; no data shown, no methods given
T2 sequence: T1 sequence

binding [1] | binding [2] | Substance
no binding | – | Fpr1 (FK506-sensitive proline rotamase 1), recombinant (from UniProt P20081 1-114)
– | no binding | Fpr1, two-hybrid fusion (from UniProt P20081 1-114)
